Some of the results follow. This data set is noisy: repeats of one test often differ as much as different tests do.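 Human kidney-derived cells stably carry a construct in which eight TEAD-binding elements drive luciferase, measured by luminescence in a drug-repurposing library screen. A hit is any compound whose signal exceeds the plate mean by more than five robust Z scores.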
Test system: HEK293A TEAD-LUC reporter
Assay: TEAD-luciferase reporter activity (YAP activation), robust Z score vs plate; higher = stronger YAP/TEAD activation
Settings: 24 h

Compound	TEAD-luciferase reporter activity (compound concentration: 200 nM)	TEAD-luciferase reporter activity (compound concentration: 2 uM)	TEAD-luciferase reporter activity (compound concentration: 10 uM)
CCCCC(CC)COC(=O)/C=C/c1ccc(OC)cc1 (stereo not drawn) [Bergasol]	inactive: -0.104	inactive: 1.31	inactive: -0.848
CC1N(C(=O)c2ccccc2C(F)(F)F)CCOC1(Cn1cncn1)c1ccc(F)cc1F (stereo not drawn) [analog of UR 9751]		inactive: -1.06	
CC1N(C(=O)c2ccccc2C(F)(F)F)CCOC1(Cn1cncn1)c1ccc(F)cc1F (stereo not drawn)	inactive: -0.967		inactive: 1.42
CN1C(=O)N(c2cc(Cl)cc(Cl)c2)C(=O)[C@]12CN(c1ccc(C(=O)O)cn1)C[C@H]2c1ccc(C#N)cc1	inactive: 1.94	inactive: 1.2	inactive: -1.61
CCN1CCN(C(C)C)[C@H]2CCn3c(c(C)c4ccccc43)[C@@H]21 [atiprosin]	inactive: -0.825	inactive: 0.939	inactive: 3.49
C[C@H]1[C@H]2N(C(=O)CN(C)N2C(=O)NCc2ccccc2)[C@@H](Cc2ccc(O)cc2)C(=O)N1Cc1cccc2cccnc12	inactive: -2.05	inactive: 0.0309	inactive: 1.22
Cc1ccc(N(C=C2NCCN2)c2cccc(O)c2)cc1	inactive: 0.594	inactive: -1.61	inactive: -0.0702
O=C1CCc2ccccc2O1	inactive: 0.608	inactive: -0.066	inactive: -1.04
Cc1cc(C)cc(-c2ccc(CN3CCCC3C(=O)NCc3ccc(C(F)(F)F)cc3)cc2)c1 (stereo not drawn)	inactive: 1.08		inactive: -0.911
CCOc1nn(Cc2ccc(OCc3csc(-c4ccccc4)n3)cc2)cc1CCC(=O)O [Sipoglitazar]	inactive: 0.114	inactive: -0.341	inactive: -0.698
CC(=O)N1Cc2ccccc2OC2(CCN(C(=O)C3CCN(C)CC3)CC2)C1	inactive: 4.01		
COc1cccc(C(=O)NC2CCCN(Cc3ccc(-c4cc(C)cc(C)c4)cc3)C2)c1 (stereo not drawn)	inactive: -0.934		inactive: 0.698
COC(CN1CCC(C(=O)c2ccc(F)cc2)CC1)c1ccc([N+](=O)[O-])cc1 (stereo not drawn)	inactive: 0.401	inactive: -0.426	inactive: 2.52
N=C(N)NCCC[C@H](NC(=O)[C@@H]1CCCN1C(=O)[C@@H]1CSSC[C@H](N)C(=O)N[C@@H](Cc2ccc(O)cc2)C(=O)N[C@@H](Cc2ccccc2)C(=O)N[C@@H](CCC(N)=O)C(=O)N[C@@H](CC(N)=O)C(=O)N1)C(=O)NCC(N)=O [Argipressin]	inactive: -1.22	inactive: -0.644	inactive: 1.12
CC(=O)[O][Pt-2]([NH3+])([Cl])([Cl])([NH2+]C12CC3CC(CC(C3)C1)C2)[O]C(C)=O	inactive: -0.379	inactive: -0.544	inactive: -0.784
CC(C)N1CCN(c2cc(-c3ccccc3)c(C(F)(F)F)nn2)CC1	inactive: -0.833	inactive: -0.305	inactive: 1.01
CC1(C)SCCN(S(=O)(=O)c2ccc(Oc3ccncc3)cc2)[C@H]1C(=O)NO [Prinomastat]	inactive: -0.658	inactive: -0.127	inactive: -1.72
C[Si](C)(C)O[Si](C)(C)O[Si](C)(C)C [dimethicone]		inactive: -1.2	
C[Si](C)(C)O[Si](C)(C)O[Si](C)(C)C [dimethicone, Applied Biology]	inactive: 1.26		inactive: 0.0844
Cc1cc(C)c(/C=C2\C(=O)Nc3ccccc32)[nH]1 [Semaxanib]	inactive: -1.1	inactive: -0.647	inactive: -0.0313
Oc1c(CN2CCCC2)cc(Nc2ncnc3ccccc23)cc1CN1CCCC1 [Changrolin]	inactive: -1.43	inactive: 1.27	inactive: 0.196
COc1cc2c(cc1OC)[C@H]1C[C@@H](O)[C@H](CC(C)C)CN1CC2 [(+)-alpha-Dihydrotetrabenazine]	inactive: -1.28	inactive: -0.442	inactive: 3.19
CC(=O)OCOC(=O)C1N2C(=O)C(NC(=O)Cc3ccccc3)C2SC1(C)C (stereo not drawn)	inactive: -2.29	inactive: 2.43	inactive: 0.538
CC(C)(O)Cn1c(=O)n(Cc2ccc(Br)cc2)c(=O)c2ccc(Cl)c(F)c21	inactive: -1.58	inactive: -1.67	inactive: 2.48
COc1ccc(CCN(C)CCCN(C(=O)c2ccc([N+](=O)[O-])cc2)c2ccc(OC)c(OC)c2)cc1OC	inactive: -0.881	inactive: 1.28	inactive: -1.61
CC(C)(C(=O)O)c1cn2nc(NCCCN3CCC(OC(c4ccccc4)c4ccccc4)CC3)ccc2n1	inactive: 0.894	inactive: -0.473	inactive: 0.755

2 successive entries out of the list so far, quoted:
Compound	TEAD-luciferase reporter activity (compound concentration: 200 nM)	TEAD-luciferase reporter activity (compound concentration: 2 uM)	TEAD-luciferase reporter activity (compound concentration: 10 uM)
C[Si](C)(C)O[Si](C)(C)O[Si](C)(C)C [dimethicone, Applied Biology]	inactive: 1.26		inactive: 0.0844
Cc1cc(C)c(/C=C2\C(=O)Nc3ccccc32)[nH]1 [Semaxanib]	inactive: -1.1	inactive: -0.647	inactive: -0.0313

Source: the supplement of paper PMC10735217
